Results published in PubChem BioAssay AID2685 (National Center for Advancing Translational Sciences (NCATS), 2010).
The other results are listed elsewhere or left out. These are further read-outs of the screen, such as a control signal, another cell line or another target. No call is given for them. Compounds called inactive in the main read-out are mostly missing here. Potencies come from curve fits of mixed quality, noted in brackets.

Assay: qHTS Assay for Lipid Storage Modulators in Drosophila S3 Cells;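 as to cell number change: cells counted by Cell Tracker Red CMTPX staining in the red channel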
Conditions: BODIPY lipid droplet fluorescence, 18-24 h; for cell number change: measured here: cell count max response, cells fed with added oleic acid
Outline: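 Drosophila S3 cells loaded with oleic acid (400 uM, as added) and compounds at several concentrations; lipid droplets imaged by 488-nm laser-scanning cytometry, 500–530 nm intensity and object ratio to cell channel. Percent activity normalized to 20 uM Triacsin C.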

[1] = measured here: lipid fluorescence (Fed channel) AC50, cells fed with added oleic acid
[2] = measured here: cell number channel AC50, cells fed with added oleic acid

| SMILES | cell number change [%] | AC50 [1] | AC50 [2] |
| --- | --- | --- | --- |
| COc1ccc(-n2nc(C(=O)NCC(=O)N3CCOCC3)c3ccccc3c2=O)cc1Cl | -3.97 | 0.58 µM [rising, single point] | – |
| COCCOC(=O)C1=C(C)NC(=O)NC1c1c(OC)ncnc1OC (centres undefined) | -17.2 | 16.4 µM [falling, partial curve, poor fit] | – |
| CCOC(=O)N1CCN(C(=O)CCn2c(=O)[nH]c3ccsc3c2=O)CC1 | 34.4 | 8.2 µM [rising, partial curve, poor fit] | 7.31 µM [rising, partial curve, poor fit] |
| COc1ccc(CN2C(=NC(=O)C3CCCCC3)SC3CS(=O)(=O)CC32)cc1 (centres undefined) | 10.6 | – | – |
| O=C(O)C1C2C=CC(O2)C1C(=O)Nc1ccc2c(c1)OCCO2 (centres undefined) | 31.4 | – | 0.116 µM [rising, full curve] |
| CCOC(=O)CN1CC23C=CC(O2)C(C(=O)Nc2ccc(F)cc2)C3C1=O (centres undefined) | -10.8 | 0.82 µM [falling, full curve, poor fit] | – |
| Cc1ccc2c(CN3CCN(S(=O)(=O)c4ccccc4C(F)(F)F)CC3)cc(=O)oc2c1 | -3.96 | 0.58 µM [rising, full curve] | – |
| CC(C)Oc1ccc(C(=O)OCC(=O)NC(=O)NC2CCCC2)cc1 | -41.5 | 4.11 µM [falling, single point] | 18.4 µM [falling, single point] |
| COc1ccccc1CC(=O)NCCc1ccccc1 | 19.2 | 29.1 µM [rising, single point] | – |
| Cc1ccc(NC(=O)COC(=O)c2ccc(S(=O)(=O)NCc3ccco3)cc2)cc1 | 7.39 | 29.1 µM [falling, single point] | – |
| O=C(Nc1ccccc1)c1nnsc1S(=O)(=O)c1ccc(Cl)cc1 | -74.9 | 29.1 µM [falling, single point] | 32.6 µM [falling, single point] |
| Nc1ncnc2c1ncn2CCN1CCOCC1 | -10.6 | 0.164 µM [falling, full curve, poor fit] | – |
| CCOc1ccc(S(=O)(=O)Nc2cc(SCC(=O)O)c(O)c3ccccc23)cc1 | -27.7 | – | – |
| Clc1ccc(Cn2cc(Br)cn2)cc1Cl | -34.1 | 6.51 µM [rising, single point] | 32.6 µM [falling, single point] |
| CC(=O)CCc1oc2ccc(NC(C)=O)cc2c1-c1ccc(C)o1 | -26.8 | 10.3 µM [falling, partial curve, poor fit] | – |
| COc1ccc(NC(=O)c2ccc3c(c2)N(C)CCS3)cc1 | 32 | 29.1 µM [rising, single point] | 1.64 µM [rising, partial curve, poor fit] |
| Cc1cc(C)c(S(=O)(=O)N2CCN(C(=O)c3ccc4c(c3)OCO4)CC2)c(C)c1 | -16.1 | – | – |
| O=C(CSc1ccc(-c2ccc(Br)cc2)nn1)N1CCOCC1 | -9.83 | 6.51 µM [falling, single point] | – |
| O=C(CN1C(=O)NC2(CCCCCC2)C1=O)Nc1cccc(F)c1 | -20.8 | 1.84 µM [falling, full curve, poor fit] | – |
| Cc1onc(-c2c(Cl)cccc2Cl)c1C(=O)Nc1ccc(C(N)=O)cc1 | -7.5 | – | – |

| SMILES | cell number change [%] | AC50 [1] | AC50 [2] |
| --- | --- | --- | --- |
| COc1ccc2[nH]c3c(c2c1)CCN1C(=O)N([C@@H](C)C(=O)NCc2ccccc2)C(=O)[C@]31C | -2.59 | – | – |
| C=CCN(C(=O)CCC(=O)Nc1cc(C)on1)C(C(=O)NC(C)(C)C)c1cccc(OC)c1OC (centres undefined) | -0.613 | – | – |
| O=C(Nc1ccc(N2CCN(C(=O)c3ccccc3)CC2)c(Cl)c1)c1cccnc1 | -23.1 | – | – |
| c1ccc(CNc2c3ccccc3nc3ccccc23)cc1 | -38.3 | 7.31 µM [falling, partial curve] | 20.6 µM [falling, single point] |
| Cc1ccc(C(C(=O)NC(C)(C)C)N(CC2CCCO2)C(=O)CCC(=O)Nc2ccccn2)cc1 (centres undefined) | 74.4 | – | 0.92 µM [rising, partial curve] |
| CCOC(=O)C1CCN(C(=O)Cn2nc(C)n3c(cc4cc(F)ccc43)c2=O)CC1 | -10.7 | 4.61 µM [falling, single point] | – |
| O=C(NCCN1CCOCC1)C12CC3CC(C1)CC(c1ccccc1)(C3)C2 | 15.8 | 18.4 µM [rising, single point] | 0.82 µM [rising, single point] |
| Cc1ccc(S(=O)(=O)NC(C(=O)N2CCOCCOCCOCC2)c2ccccc2)cc1 (centres undefined) | -10 | – | – |
| CCCCCc1c(C)[nH]c2nc3ccccc3n2c1=O | 9.33 | – | – |
| COc1ccc(N2CCN(C(=O)c3ccc(-n4nc(C)cc4C)cc3)CC2)cc1 | – | 0.58 µM [rising, single point] | – |
| Cc1cccc(NC(=O)CSCC(=O)Nc2cc(S(=O)(=O)N3CCOCC3)ccc2N2CCCC2)c1 | 7.49 | – | – |
| CC(=O)NC12CC3CC(C1)CC(C(=O)N1CCN(C(=O)c4ccco4)CC1)(C3)C2 | 6.22 | 7.31 µM [falling, partial curve, poor fit] | 6.51 µM [falling, single point] |
| C=CCN1C(=O)C(CC(=O)O)SC1=Nc1ccc(C(=O)O)cc1 (centres undefined) | -102 | – | 23.1 µM [falling, single point] |
| O=C(NN1C(=O)C2C3C=CC([C@@H]2C1=O)C31CC1)c1ccccc1 (some centres undefined) | -6.96 | 0.651 µM [rising, partial curve, poor fit] | – |
| CC1CCCN(c2ccc(/C=C(\C#N)c3nn(-c4ccccc4)c(N)c3C#N)cc2[N+](=O)[O-])C1 (centres undefined) | -24.3 | 29.1 µM [falling, single point] | – |
| CCOc1cc2[nH]c(=O)n(CCCCC(=O)N3CCCCCC3)c(=O)c2cc1OCC | -23.5 | 18.4 µM [falling, partial curve] | – |
| COc1cc(C(=S)N2CCOCC2)cc(OC)c1OS(=O)(=O)c1ccc(C)cc1 | -14.7 | 6.51 µM [falling, single point] | – |
| COc1ccc(NC(=O)CCC(=O)c2cccs2)cc1S(=O)(=O)Nc1ccccc1Cl | -7.66 | – | – |
| COc1cccc(-n2c(=O)n(Cc3ccccc3)c(=O)c3[nH]cnc32)c1C | 41.3 | – | 29.1 µM [rising, single point] |
| Cc1nc2ccc(NC(=O)c3cncc(Br)c3)cc2s1 | 5.16 | 0.0651 µM [rising, full curve, poor fit] | – |

| SMILES | cell number change [%] | AC50 [1] | AC50 [2] |
| --- | --- | --- | --- |
| CC(=O)c1ccc(S(=O)(=O)NCCC(=O)OC(C)C(=O)Nc2ccc(F)cc2)cc1 (centres undefined) | 9.08 | 32.6 µM [falling, single point] | – |
| CCOC(=O)C1CCCN(C(=O)c2ccc([N+](=O)[O-])cc2)C1 (centres undefined) | – | – | 0.731 µM [falling, partial curve, poor fit] |
| CC(C)c1ccc(CCNC(=O)CSC(=S)N2CCCC2)cc1 | 2 | – | – |
| C=CCSc1nc2sc3c(c2c(=O)n1CC=C)CCc1ccccc1-3 | 35.4 | 0.58 µM [falling, partial curve, poor fit] | 7.31 µM [rising, partial curve] |
| FC(F)(F)c1ccccc1NC(=S)N1CCN(c2ccccn2)CC1 | 18 | – | – |
| C#CCn1c(=NC(=O)c2ccc(S(=O)(=O)N3CCc4ccccc4C3)cc2)sc2cc(S(N)(=O)=O)ccc21 | -82.9 | 7.31 µM [falling, partial curve] | 7.31 µM [falling, partial curve] |
| Cc1ccc(C)c(S(=O)(=O)N2CCN(C(=O)Cc3ccccc3)CC2)c1 | -13.4 | 16.4 µM [rising, single point] | – |
| CC(C(=O)NCc1cccs1)N1C(=O)c2ccccc2C1=O (centres undefined) | 17.5 | – | – |
| CC1CCCCC1NC(=O)c1cc2c(=O)n3ccccc3nc2n1C (centres undefined) | 17.6 | 1.03 µM [falling, partial curve] | – |
| COCCn1c(C)cc(C(=O)CSc2nnnn2C2CCCC2)c1C | 35.4 | – | 18.4 µM [rising, partial curve] |
| CCOC(=O)c1c(-c2ccc(F)cc2)csc1NC(=O)c1c(-c2ccccc2)noc1C | -17.2 | 16.4 µM [falling, single point] | – |
| O=C(NCCc1ccc(F)cc1)c1cccc(NC(=O)c2ccccc2)c1 | -40.7 | – | 11.6 µM [falling, partial curve, poor fit] |
| Cc1ccc(CN2C(=O)c3ccccc3NC2c2ccccn2)cc1 (centres undefined) | 16 | – | 0.411 µM [rising, full curve, poor fit] |
| CCC(C)[C@H]1CNCCN1CC1(c2ccccc2)CC1 (some centres undefined) | 31.4 | – | 0.366 µM [rising, full curve, poor fit] |
| COc1ccccc1N1CCN(c2ncnc3c2oc2ccccc23)CC1 | -14.2 | 0.231 µM [rising, full curve, poor fit] | – |
| CCNc1nc(OCCNC(C)=O)nc(N(C)C)n1 | 1.17 | 0.116 µM [rising, full curve, poor fit] | – |
| Cc1cc2nc3c(c(C(F)(F)F)n2n1)CCCC3 | 9.79 | 16.4 µM [rising, partial curve, poor fit] | – |
| CCOc1cccc(CNc2nnnn2C)c1 | 22 | 29.1 µM [rising, single point] | – |
| CCOc1ccc(C2CC(c3cccc(OC)c3OC)n3nnnc3N2)cc1Cl (centres undefined) | 12.4 | 4.61 µM [rising, single point] | 3.26 µM [rising, partial curve] |
| CCOc1ccc(NC(=O)C2CCN(S(=O)(=O)c3ccc4c(c3)C(C)(C)C(=O)N4C)CC2)cc1 | 16.2 | – | – |

Exported with tabs: part of the list above.
SMILES	cell number change [%]	AC50 [1]	AC50 [2]
CC1CCCCC1NC(=O)c1cc2c(=O)n3ccccc3nc2n1C (centres undefined)	17.6	1.03 µM [falling, partial curve]	–
COCCn1c(C)cc(C(=O)CSc2nnnn2C2CCCC2)c1C	35.4	–	18.4 µM [rising, partial curve]
CCOC(=O)c1c(-c2ccc(F)cc2)csc1NC(=O)c1c(-c2ccccc2)noc1C	-17.2	16.4 µM [falling, single point]	–
